Results deposited as PubChem BioAssay AID1259308 (NCATS, 2017).
The deposit covers about 59,000 reagents; this is a random part of them. About 1,510 of all reagents (2.6%) count as active. 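Calls use total luciferase alone and ignore viability, so some active siRNAs may act by altering cell number.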 The numbers tell different reagents against one gene apart. Further read-outs or replicates are left out here. No sequences are given here.

Assay: 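Candidate targets for better recombinant protein yield in mammalian cells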 (primary screen)
System: human HEK293 embryonic kidney cells stably expressing firefly luciferase (HEK-CMV-Luc2-Hygro)
Reagent: single siRNA against human genes, 0.8 pmol siRNA per well
Time to read-out: 72 h
Detection: 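Reporter luminescence and viable-cell signal on separate replicate plates, given as percent of non-targeting control and median/MAD z-scores, plus per-cell luciferase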
Reading the numbers: total luciferase, z-score: higher = more reporter protein produced
Rule for the call: 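Active when the median/MAD z-score for overall luciferase is greater than 3; a gene was taken forward for validation with new siRNAs if at least two of its three siRNAs passed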
Calls: active = raised luciferase; inactive = no rise

total luciferase, z-score, by gene symbol and reagent
IDI1: #1 0.438 inactive; #2 -0.277 inactive; #3 0.214 inactive
IFIT1: #1 -1.28 inactive; #2 -0.281 inactive; #3 -0.179 inactive
CERS4: #1 0.481 inactive; #2 -0.245 inactive; #3 -0.624 inactive
KIF13A: #1 -0.532 inactive; #2 -0.0356 inactive; #3 -0.0656 inactive
VPS33B: #1 0.238 inactive; #2 0.321 inactive; #3 3.19 active
C22orf39: #1 0.329 inactive; #2 0.345 inactive; #3 -0.283 inactive

Entries above whose target name starts with K or k:
total luciferase, z-score, by gene symbol and reagent
KIF13A: #1 -0.532 inactive; #2 -0.0356 inactive; #3 -0.0656 inactive

Continued:
total luciferase, z-score, by gene symbol and reagent
NUMA1: #1 0.0688 inactive; #2 0.956 inactive; #3 -1.81 inactive
SPRY4: #1 2.53 inactive; #2 -0.769 inactive; #3 -0.743 inactive
ADIPOQ: #1 0.0589 inactive; #2 -0.0999 inactive; #3 -0.271 inactive
KCNK3: #1 -0.4 inactive; #2 0.201 inactive; #3 1.32 inactive
BCO2: #1 0.644 inactive; #2 0.0846 inactive; #3 -0.828 inactive
SENP7: #1 -1.2 inactive; #2 -1.06 inactive; #3 0.535 inactive
CLASP1: #1 1.25 inactive; #2 0.515 inactive; #3 0.989 inactive
